From patent US9469650B2, “Melampomagnolide B derivatives” (BOARD OF TRUSTEES OF THE UNIVERSITY OF ARKANSAS, priority 2013, dated 2016)
The name of at least one read-out is uncertain.

Columns and labels:
HOP-62 = test: panel of 60 human tumor cell lines, growth inhibition (Non-Small Cell Lung Cancer)
TK-10 = test: panel of 60 human tumor cell lines, growth inhibition (Renal Cancer)
T-47D = test: panel of 60 human tumor cell lines, growth inhibition (Breast Cancer)
M14 = test: panel of 60 human tumor cell lines, growth inhibition (Melanoma)
LOX IMVI = test: as above
SK-MEL-28 = test: as above
HCC-2998 = test: panel of 60 human tumor cell lines, growth inhibition (Colon Cancer)
SN12C = test: panel of 60 human tumor cell lines, growth inhibition (Renal Cancer)
MDA-MB-468 = test: panel of 60 human tumor cell lines, growth inhibition (Breast Cancer)
SNB-75 = test: panel of 60 human tumor cell lines, growth inhibition (CNS Cancer)
HCT-116 = test: panel of 60 human tumor cell lines, growth inhibition (Colon Cancer)
A549/ATCC = test: panel of 60 human tumor cell lines, growth inhibition (Non-Small Cell Lung Cancer)
OVCAR-5 = test: panel of 60 human tumor cell lines, growth inhibition (Ovarian Cancer)
A498 = test: panel of 60 human tumor cell lines, growth inhibition (Renal Cancer)
SK-MEL-2 = test: panel of 60 human tumor cell lines, growth inhibition (Melanoma)
786-0 = test: panel of 60 human tumor cell lines, growth inhibition (Renal Cancer)
RXF 393 = test: as above
COLO 205 = test: panel of 60 human tumor cell lines, growth inhibition (Colon Cancer)
NCI-H322M = test: panel of 60 human tumor cell lines, growth inhibition (Non-Small Cell Lung Cancer)
HS 578T = test: panel of 60 human tumor cell lines, growth inhibition (Breast Cancer); conditions: HS 578T
SF-295 = test: panel of 60 human tumor cell lines, growth inhibition (CNS Cancer)

In the case of C=C1C(=O)O[C@H]2[C@H]1CC/C(COC(=S)n1ccnc1)=C\CC[C@@]1(C)O[C@@H]21 [JVM 66], the “Percent Growth” value (HOP-62; Log10 Concentration −4.0) is reported as −8%, the “Percent Growth” value (HOP-62; Log10 Concentration −5.0) is reported as 125% and the “Percent Growth” value (HOP-62; Log10 Concentration −6.0) is reported as 112%. For the same compound, the “Percent Growth” value (HOP-62; Log10 Concentration −7.0) was 96%, the “Percent Growth” value (HOP-62; Log10 Concentration −8.0) was 97% and the “Percent Growth” value (TK-10; Log10 Concentration −4.0) was −82%. The “Percent Growth” value (TK-10; Log10 Concentration −5.0) was 53%, the “Percent Growth” value (TK-10; Log10 Concentration −6.0) was 91% and the “Percent Growth” value (TK-10; Log10 Concentration −7.0) was 92%. For the same compound, the “Percent Growth” value (TK-10; Log10 Concentration −8.0) was 90%, the “Percent Growth” value (T-47D; Log10 Concentration −4.0) was −36% and the “Percent Growth” value (T-47D; Log10 Concentration −5.0) was 61%. For the same compound, the “Percent Growth” value (T-47D; Log10 Concentration −6.0) was 103%, the “Percent Growth” value (T-47D; Log10 Concentration −7.0) was 94% and the “Percent Growth” value (T-47D; Log10 Concentration −8.0) was 98%. For the same compound, the “Percent Growth” value (M14; Log10 Concentration −4.0) was −56%, the “Percent Growth” value (M14; Log10 Concentration −5.0) was 62% and the “Percent Growth” value (M14; Log10 Concentration −6.0) was 92%. The “Percent Growth” value (M14; Log10 Concentration −7.0) was 94%, the “Percent Growth” value (M14; Log10 Concentration −8.0) was 94% and the “Percent Growth” value (LOX IMVI; Log10 Concentration −4.0) was −82%. For the same compound, the “Percent Growth” value (LOX IMVI; Log10 Concentration −5.0) was 6%, the “Percent Growth” value (LOX IMVI; Log10 Concentration −6.0) was 95% and the “Percent Growth” value (LOX IMVI; Log10 Concentration −7.0) was 93%. For the same compound, the “Percent Growth” value (LOX IMVI; Log10 Concentration −8.0) was 97%, the “Percent Growth” value (SK-MEL-28; Log10 Concentration −4.0) was −50% and the “Percent Growth” value (SK-MEL-28; Log10 Concentration −5.0) was 74%. The “Percent Growth” value (SK-MEL-28; Log10 Concentration −6.0) was 94%, the “Percent Growth” value (SK-MEL-28; Log10 Concentration −7.0) was 136% and the “Percent Growth” value (SK-MEL-28; Log10 Concentration −8.0) was 100%. The “Percent Growth” value (HCC-2998; Log10 Concentration −4.0) was −85%, the “Percent Growth” value (HCC-2998; Log10 Concentration −5.0) was 89% and the “Percent Growth” value (HCC-2998; Log10 Concentration −6.0) was 104%. For the same compound, the “Percent Growth” value (HCC-2998; Log10 Concentration −7.0) was 99%, the “Percent Growth” value (HCC-2998; Log10 Concentration −8.0) was 100% and the “Percent Growth” value (SN12C; Log10 Concentration −4.0) was −60%. The “Percent Growth” value (SN12C; Log10 Concentration −5.0) was 86%, the “Percent Growth” value (SN12C; Log10 Concentration −6.0) was 95% and the “Percent Growth” value (SN12C; Log10 Concentration −7.0) was 100%. The “Percent Growth” value (SN12C; Log10 Concentration −8.0) was 98%, the “Percent Growth” value (MDA-MB-468; Log10 Concentration −4.0) was −24% and the “Percent Growth” value (MDA-MB-468; Log10 Concentration −5.0) was 20%. The “Percent Growth” value (MDA-MB-468; Log10 Concentration −6.0) was 86%, the “Percent Growth” value (MDA-MB-468; Log10 Concentration −7.0) was 85% and the “Percent Growth” value (MDA-MB-468; Log10 Concentration −8.0) was 94%. The “Percent Growth” value (SNB-75; Log10 Concentration −4.0) was 35%, the “Percent Growth” value (SNB-75; Log10 Concentration −5.0) was 72% and the “Percent Growth” value (SNB-75; Log10 Concentration −6.0) was 84%. For the same compound, the “Percent Growth” value (SNB-75; Log10 Concentration −7.0) was 84%, the “Percent Growth” value (SNB-75; Log10 Concentration −8.0) was 79% and the “Percent Growth” value (HCT-116; Log10 Concentration −4.0) was −81%. For the same compound, the “Percent Growth” value (HCT-116; Log10 Concentration −5.0) was −17%, the “Percent Growth” value (HCT-116; Log10 Concentration −6.0) was 93% and the “Percent Growth” value (HCT-116; Log10 Concentration −7.0) was 94%. For the same compound, the “Percent Growth” value (HCT-116; Log10 Concentration −8.0) was 96%, the “Percent Growth” value (A549/ATCC; Log10 Concentration −4.0) was 6% and the “Percent Growth” value (A549/ATCC; Log10 Concentration −5.0) was 88%. The “Percent Growth” value (A549/ATCC; Log10 Concentration −6.0) was 93%, the “Percent Growth” value (A549/ATCC; Log10 Concentration −7.0) was 100% and the “Percent Growth” value (A549/ATCC; Log10 Concentration −8.0) was 102%. For the same compound, the “Percent Growth” value (OVCAR-5; Log10 Concentration −4.0) was −67%, the “Percent Growth” value (OVCAR-5; Log10 Concentration −5.0) was 88% and the “Percent Growth” value (OVCAR-5; Log10 Concentration −6.0) was 98%. For the same compound, the “Percent Growth” value (OVCAR-5; Log10 Concentration −7.0) was 94%, the “Percent Growth” value (OVCAR-5; Log10 Concentration −8.0) was 94% and the “Percent Growth” value (A498; Log10 Concentration −4.0) was −21%. The “Percent Growth” value (A498; Log10 Concentration −5.0) was 95%, the “Percent Growth” value (A498; Log10 Concentration −6.0) was 97% and the “Percent Growth” value (A498; Log10 Concentration −7.0) was 92%. For the same compound, the “Percent Growth” value (A498; Log10 Concentration −8.0) was 98%, the “Percent Growth” value (SK-MEL-2; Log10 Concentration −4.0) was −54% and the “Percent Growth” value (SK-MEL-2; Log10 Concentration −5.0) was 78%. The “Percent Growth” value (SK-MEL-2; Log10 Concentration −6.0) was 99%, the “Percent Growth” value (SK-MEL-2; Log10 Concentration −7.0) was 96% and the “Percent Growth” value (SK-MEL-2; Log10 Concentration −8.0) was 103%. The “Percent Growth” value (786-0; Log10 Concentration −4.0) was −60%, the “Percent Growth” value (786-0; Log10 Concentration −5.0) was 82% and the “Percent Growth” value (786-0; Log10 Concentration −6.0) was 98%. The “Percent Growth” value (786-0; Log10 Concentration −7.0) was 97%, the “Percent Growth” value (786-0; Log10 Concentration −8.0) was 96% and the “Percent Growth” value (RXF 393; Log10 Concentration −4.0) was −67%. For the same compound, the “Percent Growth” value (RXF 393; Log10 Concentration −5.0) was 4%, the “Percent Growth” value (RXF 393; Log10 Concentration −6.0) was 94% and the “Percent Growth” value (RXF 393; Log10 Concentration −7.0) was 82%. The “Percent Growth” value (RXF 393; Log10 Concentration −8.0) was 97%, the “Percent Growth” value (COLO 205; Log10 Concentration −4.0) was −80% and the “Percent Growth” value (COLO 205; Log10 Concentration −5.0) was 63%. The “Percent Growth” value (COLO 205; Log10 Concentration −6.0) was 100%, the “Percent Growth” value (COLO 205; Log10 Concentration −7.0) was 96% and the “Percent Growth” value (COLO 205; Log10 Concentration −8.0) was 95%. For the same compound, the “Percent Growth” value (NCI-H322M; Log10 Concentration −4.0) was 41%, the “Percent Growth” value (NCI-H322M; Log10 Concentration −5.0) was 96% and the “Percent Growth” value (NCI-H322M; Log10 Concentration −6.0) was 100%. The “Percent Growth” value (NCI-H322M; Log10 Concentration −7.0) was 92%, the “Percent Growth” value (NCI-H322M; Log10 Concentration −8.0) was 94% and the “Percent Growth” value (HS 578T; Log10 Concentration −4.0) was 16%. For the same compound, the “Percent Growth” value (HS 578T; Log10 Concentration −5.0) was 75%, the “Percent Growth” value (HS 578T; Log10 Concentration −6.0) was 95% and the “Percent Growth” value (HS 578T; Log10 Concentration −7.0) was 93%. For the same compound, the “Percent Growth” value (HS 578T; Log10 Concentration −8.0) was 90%, the “Percent Growth” value (SF-295; Log10 Concentration −4.0) was 28% and the “Percent Growth” value (SF-295; Log10 Concentration −5.0) was 91%. The “Percent Growth” value (SF-295; Log10 Concentration −6.0) was 94%, the “Percent Growth” value (SF-295; Log10 Concentration −7.0) was 94% and the “Percent Growth” value (SF-295; Log10 Concentration −8.0) was 93%.
